The source of these data is article PMC5871715.

In the test the target is T1, full-length human Draxin for SAXS (human), Q8NBI3.
T1 chain: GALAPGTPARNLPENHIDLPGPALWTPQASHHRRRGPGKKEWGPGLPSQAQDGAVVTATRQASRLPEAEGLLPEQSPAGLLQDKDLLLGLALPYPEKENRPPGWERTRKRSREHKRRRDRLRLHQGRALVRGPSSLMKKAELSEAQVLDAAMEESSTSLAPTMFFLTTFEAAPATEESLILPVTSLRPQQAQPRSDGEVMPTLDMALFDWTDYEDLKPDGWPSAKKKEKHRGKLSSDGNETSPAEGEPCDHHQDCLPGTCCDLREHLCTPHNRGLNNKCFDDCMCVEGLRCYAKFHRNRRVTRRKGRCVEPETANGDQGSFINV
Briefly: SAXS; dilution series 0.3 - 1.2 mg/ml, 20 C, 20 mM HEPES pH 7.4, 150 mM NaCl, 5 mM KCl, 1 mM MgCl2, 1 mM DTT, 10% glycerol; both purified. Conditions: remark: other sources report otherwise.

Results are given in words; binding and its absence hold for the method and conditions named.

B1: full-length human Draxin for SAXS, Q8NBI3 26-349 (protein)
chain: T1 chain
Take B1: the binding entry is listed as “no binding (tested: 0.3 – 1.2 mg/ml)”.
